Results as given in the supplement of paper PMC10849652.
This is one part of the list.

Sequences of proteins named here, by UniProt entry; tags and fusion partners are left off. A change or cut given only in a name is not applied to a line headed by its entry.
UniProt Q8IUZ5: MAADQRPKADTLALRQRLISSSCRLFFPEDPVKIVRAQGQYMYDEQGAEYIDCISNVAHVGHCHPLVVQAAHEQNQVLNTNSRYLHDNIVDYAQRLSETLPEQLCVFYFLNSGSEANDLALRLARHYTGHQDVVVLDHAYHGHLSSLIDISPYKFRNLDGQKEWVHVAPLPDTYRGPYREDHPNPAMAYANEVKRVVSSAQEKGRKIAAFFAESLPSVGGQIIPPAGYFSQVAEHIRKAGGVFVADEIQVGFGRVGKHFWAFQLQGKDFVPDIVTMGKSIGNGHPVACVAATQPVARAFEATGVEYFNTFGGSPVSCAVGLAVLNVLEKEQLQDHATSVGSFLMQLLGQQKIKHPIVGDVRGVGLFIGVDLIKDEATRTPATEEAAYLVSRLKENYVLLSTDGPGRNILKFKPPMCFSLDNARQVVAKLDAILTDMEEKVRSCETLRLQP
UniProt Q9BUL5: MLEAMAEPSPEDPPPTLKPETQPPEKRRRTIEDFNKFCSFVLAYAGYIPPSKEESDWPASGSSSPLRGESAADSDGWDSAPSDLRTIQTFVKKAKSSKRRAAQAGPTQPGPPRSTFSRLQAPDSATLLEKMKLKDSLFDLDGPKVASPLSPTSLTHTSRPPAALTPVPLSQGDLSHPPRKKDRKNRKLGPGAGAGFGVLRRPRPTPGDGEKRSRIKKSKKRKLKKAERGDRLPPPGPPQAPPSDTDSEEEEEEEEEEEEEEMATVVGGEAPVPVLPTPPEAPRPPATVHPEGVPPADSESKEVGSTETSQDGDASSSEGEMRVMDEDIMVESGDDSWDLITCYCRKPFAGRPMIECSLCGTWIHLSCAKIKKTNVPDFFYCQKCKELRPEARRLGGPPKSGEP
UniProt O60346: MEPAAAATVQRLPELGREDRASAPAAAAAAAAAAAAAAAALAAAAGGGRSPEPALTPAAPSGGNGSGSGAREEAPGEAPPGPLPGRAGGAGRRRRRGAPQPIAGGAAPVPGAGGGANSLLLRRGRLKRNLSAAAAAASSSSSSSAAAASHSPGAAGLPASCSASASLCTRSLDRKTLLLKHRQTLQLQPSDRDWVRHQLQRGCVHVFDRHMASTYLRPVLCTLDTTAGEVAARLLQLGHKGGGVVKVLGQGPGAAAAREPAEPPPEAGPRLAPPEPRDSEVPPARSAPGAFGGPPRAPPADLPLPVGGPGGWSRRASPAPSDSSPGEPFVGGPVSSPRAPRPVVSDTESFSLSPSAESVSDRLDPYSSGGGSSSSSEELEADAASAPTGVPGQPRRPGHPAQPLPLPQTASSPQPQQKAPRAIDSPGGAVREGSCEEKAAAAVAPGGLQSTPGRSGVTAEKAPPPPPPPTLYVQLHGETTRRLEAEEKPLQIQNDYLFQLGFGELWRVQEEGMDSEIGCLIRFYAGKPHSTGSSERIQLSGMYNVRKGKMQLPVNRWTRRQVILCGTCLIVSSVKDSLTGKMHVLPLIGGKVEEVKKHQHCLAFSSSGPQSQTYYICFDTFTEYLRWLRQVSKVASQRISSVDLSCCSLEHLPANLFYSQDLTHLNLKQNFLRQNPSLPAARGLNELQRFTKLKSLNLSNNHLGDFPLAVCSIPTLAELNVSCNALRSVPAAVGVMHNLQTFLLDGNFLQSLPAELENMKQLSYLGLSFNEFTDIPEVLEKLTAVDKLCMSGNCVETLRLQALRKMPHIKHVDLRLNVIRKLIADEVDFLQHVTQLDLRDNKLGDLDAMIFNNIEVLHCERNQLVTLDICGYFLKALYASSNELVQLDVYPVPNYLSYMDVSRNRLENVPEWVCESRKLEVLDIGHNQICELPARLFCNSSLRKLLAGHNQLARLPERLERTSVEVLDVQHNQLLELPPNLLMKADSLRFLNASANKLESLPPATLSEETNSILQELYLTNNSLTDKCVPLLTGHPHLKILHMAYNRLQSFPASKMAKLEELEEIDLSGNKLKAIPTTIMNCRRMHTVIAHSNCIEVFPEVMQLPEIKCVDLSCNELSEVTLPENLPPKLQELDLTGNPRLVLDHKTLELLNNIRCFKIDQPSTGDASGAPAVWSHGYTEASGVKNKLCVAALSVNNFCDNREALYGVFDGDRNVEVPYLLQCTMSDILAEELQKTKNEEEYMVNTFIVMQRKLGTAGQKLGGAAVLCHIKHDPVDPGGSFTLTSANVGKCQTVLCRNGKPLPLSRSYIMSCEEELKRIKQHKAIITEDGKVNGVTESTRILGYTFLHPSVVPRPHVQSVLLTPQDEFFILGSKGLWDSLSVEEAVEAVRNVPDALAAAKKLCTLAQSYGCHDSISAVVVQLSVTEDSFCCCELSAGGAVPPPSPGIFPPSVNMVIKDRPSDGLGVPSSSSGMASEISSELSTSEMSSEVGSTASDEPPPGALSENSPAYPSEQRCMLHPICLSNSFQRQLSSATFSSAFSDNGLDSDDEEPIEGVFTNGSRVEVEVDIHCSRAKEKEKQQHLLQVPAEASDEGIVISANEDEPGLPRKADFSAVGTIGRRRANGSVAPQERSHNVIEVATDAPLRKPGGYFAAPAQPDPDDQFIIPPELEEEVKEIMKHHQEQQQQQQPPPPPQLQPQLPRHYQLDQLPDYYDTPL
UniProt Q8N4L2: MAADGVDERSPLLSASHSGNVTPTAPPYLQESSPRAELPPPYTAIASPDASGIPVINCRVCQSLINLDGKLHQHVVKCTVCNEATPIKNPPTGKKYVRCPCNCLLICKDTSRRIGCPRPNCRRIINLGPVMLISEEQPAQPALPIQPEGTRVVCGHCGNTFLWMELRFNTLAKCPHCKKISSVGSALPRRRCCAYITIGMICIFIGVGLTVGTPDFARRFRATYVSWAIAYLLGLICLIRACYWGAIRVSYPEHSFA
UniProt P55347: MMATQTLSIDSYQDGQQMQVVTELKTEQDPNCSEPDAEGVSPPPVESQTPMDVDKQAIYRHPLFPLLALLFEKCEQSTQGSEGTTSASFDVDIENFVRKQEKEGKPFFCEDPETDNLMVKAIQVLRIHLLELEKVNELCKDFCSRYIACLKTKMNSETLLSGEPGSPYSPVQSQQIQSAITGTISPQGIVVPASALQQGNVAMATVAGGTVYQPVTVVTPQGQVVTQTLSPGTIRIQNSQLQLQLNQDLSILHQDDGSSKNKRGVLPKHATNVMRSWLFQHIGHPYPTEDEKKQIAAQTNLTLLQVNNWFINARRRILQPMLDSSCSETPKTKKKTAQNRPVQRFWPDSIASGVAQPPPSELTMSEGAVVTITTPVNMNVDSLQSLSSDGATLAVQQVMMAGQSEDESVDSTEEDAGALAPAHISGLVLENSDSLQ
UniProt Q9BTU6: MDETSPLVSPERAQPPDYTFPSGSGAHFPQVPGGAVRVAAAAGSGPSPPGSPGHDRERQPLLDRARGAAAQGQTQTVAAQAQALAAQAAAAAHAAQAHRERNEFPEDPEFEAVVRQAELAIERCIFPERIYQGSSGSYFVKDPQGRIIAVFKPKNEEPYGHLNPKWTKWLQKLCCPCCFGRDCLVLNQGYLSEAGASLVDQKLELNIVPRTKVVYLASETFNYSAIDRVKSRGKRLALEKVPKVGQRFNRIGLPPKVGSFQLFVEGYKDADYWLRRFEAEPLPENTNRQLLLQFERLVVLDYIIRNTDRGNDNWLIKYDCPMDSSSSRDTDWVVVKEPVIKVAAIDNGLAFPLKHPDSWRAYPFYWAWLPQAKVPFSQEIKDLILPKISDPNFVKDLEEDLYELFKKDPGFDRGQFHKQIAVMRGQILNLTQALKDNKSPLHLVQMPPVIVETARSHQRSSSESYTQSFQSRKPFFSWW
UniProt Q9H490: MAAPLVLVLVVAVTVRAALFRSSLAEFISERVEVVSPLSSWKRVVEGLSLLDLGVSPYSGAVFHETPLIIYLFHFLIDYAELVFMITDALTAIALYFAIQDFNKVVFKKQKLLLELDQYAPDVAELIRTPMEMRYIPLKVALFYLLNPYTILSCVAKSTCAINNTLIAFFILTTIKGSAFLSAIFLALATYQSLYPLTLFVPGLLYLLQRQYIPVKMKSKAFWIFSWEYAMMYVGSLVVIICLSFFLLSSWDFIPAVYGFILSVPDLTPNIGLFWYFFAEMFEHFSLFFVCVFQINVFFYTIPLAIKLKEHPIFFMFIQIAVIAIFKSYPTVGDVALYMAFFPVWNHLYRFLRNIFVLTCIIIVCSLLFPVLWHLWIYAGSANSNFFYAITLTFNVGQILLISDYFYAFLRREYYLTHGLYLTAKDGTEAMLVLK
UniProt Q9BZM1: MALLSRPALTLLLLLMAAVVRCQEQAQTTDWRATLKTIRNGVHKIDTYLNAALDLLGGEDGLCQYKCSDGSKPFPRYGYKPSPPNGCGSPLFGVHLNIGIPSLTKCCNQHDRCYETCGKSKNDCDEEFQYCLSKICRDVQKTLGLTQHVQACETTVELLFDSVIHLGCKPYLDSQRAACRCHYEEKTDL
UniProt Q96S52: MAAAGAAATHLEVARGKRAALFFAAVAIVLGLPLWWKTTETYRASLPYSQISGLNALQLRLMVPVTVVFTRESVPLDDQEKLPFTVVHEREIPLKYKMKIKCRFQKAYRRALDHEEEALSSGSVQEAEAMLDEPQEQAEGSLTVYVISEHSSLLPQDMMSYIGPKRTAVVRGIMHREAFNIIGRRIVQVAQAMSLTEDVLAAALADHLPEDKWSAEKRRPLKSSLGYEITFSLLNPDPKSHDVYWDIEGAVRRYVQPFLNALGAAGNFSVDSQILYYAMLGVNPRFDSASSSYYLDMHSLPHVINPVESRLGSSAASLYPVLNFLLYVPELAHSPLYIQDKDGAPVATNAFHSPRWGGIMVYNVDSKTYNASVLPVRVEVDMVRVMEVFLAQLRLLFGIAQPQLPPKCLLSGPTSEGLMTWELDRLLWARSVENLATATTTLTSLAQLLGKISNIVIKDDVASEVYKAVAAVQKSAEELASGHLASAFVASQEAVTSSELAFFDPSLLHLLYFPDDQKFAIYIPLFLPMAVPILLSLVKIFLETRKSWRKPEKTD

Key:
Assay in all cases: log2 fold change, soluble protein after heating vs DMSO (PISA); higher = thermal stabilisation; K562 lysate, 10 uM; active = over 0.2 and 3.5 SD of the protein, either way, in both replicates (recomputed)
[1] = compound: C1=CC=C(C=C1)[C@H](COC2=CC3=C(C=C2)NC(=O)N3)NC(=O)C4=CC=CN(C4=O)CC5=CC(=C(C=C5)F)F
Method in brief: (§1)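 A 30 min treatment with 10 μM compound was applied to crude K562 extract at 1 mg/mL protein in PBS pH 7.4 with 1 mM MgCl2. Heating for 3 min spanned 48°C-58°C, after which aliquots were pooled, adjusted to 0.5% NP-40 at 4°C and spun at 21,000xg for 90 min. TMTpro 16plex LC-MS/MS of the supernatant, with channel sums equalised, gave values recorded as log-two fold change in thermal stability against solvent controls, from duplicates.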

[2] = compound: CC1=C(SC2=C1C(=N[C@H](C3=NN=C(N32)C)CC(=O)N)C4=CC=C(C=C4)Cl)C
Method in brief: as §1

[3] = compound: CC1=C2C(=CC=C1)N=C(N(C2=O)C3=CC=CC=C3C)CN4C=NC5=C(N=CN=C54)N
Method in brief: as §1

[4] = compound: Cc1sc2c(c1C)C(c1ccc(Cl)cc1)=N[C@@H](CC(=O)OC(C)(C)C)c1nnc(C)n1-2
Method in brief: as §1

[5] = compound: c1ccc([C@@H]2C[C@H]2NC2CCNCC2)cc1
Method in brief: as §1

Measured: log2 fold change

PHYKPL (UniProt Q8IUZ5)
inactive: [1] -0.005 | [2] 0.029 | [3] -0.093 | [4] 0.107 | [5] 0.057

PHF23 (UniProt Q9BUL5)
inactive: [1] 0.01 | [2] 0 | [3] -0.013 | [4] -0.003 | [5] -0.015

PHLPP1 (UniProt O60346)
inactive: [1] -0.096 | [2] 0.008 | [3] -0.01 | [4] -0.244 | [5] 0.038

PIP4P2 (UniProt Q8N4L2)
inactive: [1] 0.03 | [2] -0.068 | [3] -0.012 | [4] 0.012 | [5] -0.106

PKNOX1 (UniProt P55347)
inactive: [1] 0.109 | [2] 0.115 | [3] 0.044 | [4] -0.002 | [5] -0.002

PI4K2A (UniProt Q9BTU6)
inactive: [1] 0.028 | [2] 0.056 | [3] -0.007 | [4] -0.002 | [5] 0.001

PIGU (UniProt Q9H490)
inactive: [1] -0.099 | [2] -0.016 | [3] 0.131 | [4] 0.128 | [5] 0.025

PLA2G12A (UniProt Q9BZM1)
inactive: [1] 0.195 | [2] 0.078 | [3] 0.059 | [4] 0.028 | [5] -0.084

Copied from the listing (two entries):
PIP4P2 (UniProt Q8N4L2)
inactive: [1] 0.03 | [2] -0.068 | [3] -0.012 | [4] 0.012 | [5] -0.106

PKNOX1 (UniProt P55347)
inactive: [1] 0.109 | [2] 0.115 | [3] 0.044 | [4] -0.002 | [5] -0.002

Following part.

PIGS (UniProt Q96S52)
inactive: [1] -0.064 | [2] 0.015 | [3] 0.061 | [4] 0.001 | [5] 0.061
